Test [1] concerns the target cynomolgus CD73 extracellular domain (ECD) (cynomolgus). Description: SPR ProteOn.
Test [2] deals with CD73 chimera DS2dmod_3b. Description: SPR ProteOn, CD73 variant on HTG chip.

The results in this text go back to patent US20160194407A1.

Results are given in words; binding and its absence hold for the method and conditions named. For some assays here: Binding calls can cover weak binding; strength is not graded here.

B1: MEDI9447 (antibody, V domains shown)
VH: EVQLLESGGGLVQPGGSLRLSCAASGFTFSSYAYSWVRQAPGKGLEWVSAISGSGGRTYYADSVKGRFTISRDNSKNTLYLQMNSLRAEDTAVYYCARLGYGRVDEWGRGTLVTVSS
VL: QSVLTQPPSASGTPGQRVTISCSGSLSNIGRNPVNWYQQLPGTAPKLLIYLDNLRLSGVPDRFSGSKSGTSASLAISGLQSEDEADYYCATWDDSHPGWTFGGGTKLTVL
In the case of B1, the binding result in test [1] is recorded as “binds”; in test [2] it was “no binding”.
